Laboratory results reported in PMC6021170.
Residue numbers refer to the chain shown, from its start. Results are given in words; binding and its absence hold for the method and conditions named. Binding seen in cells or lysates may run through a third protein. Some binding calls cover weakened binding; strength is not graded here. Blank lines part the entries; values can stand above or below the molecule they belong to.

Amino acid sequences for entries named in this document (tags omitted). Residues count along the entry.
UniProt P11021, residues 19-654: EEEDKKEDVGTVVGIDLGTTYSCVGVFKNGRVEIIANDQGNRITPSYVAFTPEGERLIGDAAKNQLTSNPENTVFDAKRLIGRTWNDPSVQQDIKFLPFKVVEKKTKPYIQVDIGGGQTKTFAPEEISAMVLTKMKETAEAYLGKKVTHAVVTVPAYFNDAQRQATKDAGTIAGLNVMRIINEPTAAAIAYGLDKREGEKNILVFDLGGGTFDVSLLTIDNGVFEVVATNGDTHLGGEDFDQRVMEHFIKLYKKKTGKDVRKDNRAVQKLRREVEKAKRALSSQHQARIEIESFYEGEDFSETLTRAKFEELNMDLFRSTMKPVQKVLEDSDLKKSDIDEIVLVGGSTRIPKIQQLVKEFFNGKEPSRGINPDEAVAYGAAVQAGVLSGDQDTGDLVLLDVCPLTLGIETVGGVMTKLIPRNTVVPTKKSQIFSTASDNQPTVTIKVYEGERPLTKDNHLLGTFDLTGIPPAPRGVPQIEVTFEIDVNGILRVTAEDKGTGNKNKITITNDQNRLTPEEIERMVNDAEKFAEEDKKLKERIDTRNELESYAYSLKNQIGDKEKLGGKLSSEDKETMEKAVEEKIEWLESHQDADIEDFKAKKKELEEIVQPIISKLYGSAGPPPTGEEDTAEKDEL
UniProt P07237, residues 18-508: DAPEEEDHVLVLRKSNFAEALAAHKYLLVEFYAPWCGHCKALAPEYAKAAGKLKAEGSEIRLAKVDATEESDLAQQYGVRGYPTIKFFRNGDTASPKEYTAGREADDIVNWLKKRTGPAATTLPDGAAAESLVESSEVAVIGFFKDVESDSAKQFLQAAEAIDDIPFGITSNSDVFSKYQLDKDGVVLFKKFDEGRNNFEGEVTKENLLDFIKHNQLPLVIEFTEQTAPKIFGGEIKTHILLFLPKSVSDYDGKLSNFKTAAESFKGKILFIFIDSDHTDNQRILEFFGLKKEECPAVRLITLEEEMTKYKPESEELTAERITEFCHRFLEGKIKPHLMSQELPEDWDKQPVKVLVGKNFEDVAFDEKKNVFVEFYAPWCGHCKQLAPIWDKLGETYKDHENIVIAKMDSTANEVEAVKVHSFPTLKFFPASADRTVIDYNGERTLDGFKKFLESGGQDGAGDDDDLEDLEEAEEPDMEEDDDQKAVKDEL

Tests used:
human corin WT (human) = biological target: T1, human corin WT (human) (UniProt Q9Y5Q5); experiment: co-IP; lysates of transfected HEK293 cells immunoprecipitated with anti-V5 antibody and protein A-Sepharose; co-precipitated endogenous chaperones detected by western blotting and densitometry; cells without or with DNJ (2 mM, 37°C, 24-48 hr)
T1 sequence: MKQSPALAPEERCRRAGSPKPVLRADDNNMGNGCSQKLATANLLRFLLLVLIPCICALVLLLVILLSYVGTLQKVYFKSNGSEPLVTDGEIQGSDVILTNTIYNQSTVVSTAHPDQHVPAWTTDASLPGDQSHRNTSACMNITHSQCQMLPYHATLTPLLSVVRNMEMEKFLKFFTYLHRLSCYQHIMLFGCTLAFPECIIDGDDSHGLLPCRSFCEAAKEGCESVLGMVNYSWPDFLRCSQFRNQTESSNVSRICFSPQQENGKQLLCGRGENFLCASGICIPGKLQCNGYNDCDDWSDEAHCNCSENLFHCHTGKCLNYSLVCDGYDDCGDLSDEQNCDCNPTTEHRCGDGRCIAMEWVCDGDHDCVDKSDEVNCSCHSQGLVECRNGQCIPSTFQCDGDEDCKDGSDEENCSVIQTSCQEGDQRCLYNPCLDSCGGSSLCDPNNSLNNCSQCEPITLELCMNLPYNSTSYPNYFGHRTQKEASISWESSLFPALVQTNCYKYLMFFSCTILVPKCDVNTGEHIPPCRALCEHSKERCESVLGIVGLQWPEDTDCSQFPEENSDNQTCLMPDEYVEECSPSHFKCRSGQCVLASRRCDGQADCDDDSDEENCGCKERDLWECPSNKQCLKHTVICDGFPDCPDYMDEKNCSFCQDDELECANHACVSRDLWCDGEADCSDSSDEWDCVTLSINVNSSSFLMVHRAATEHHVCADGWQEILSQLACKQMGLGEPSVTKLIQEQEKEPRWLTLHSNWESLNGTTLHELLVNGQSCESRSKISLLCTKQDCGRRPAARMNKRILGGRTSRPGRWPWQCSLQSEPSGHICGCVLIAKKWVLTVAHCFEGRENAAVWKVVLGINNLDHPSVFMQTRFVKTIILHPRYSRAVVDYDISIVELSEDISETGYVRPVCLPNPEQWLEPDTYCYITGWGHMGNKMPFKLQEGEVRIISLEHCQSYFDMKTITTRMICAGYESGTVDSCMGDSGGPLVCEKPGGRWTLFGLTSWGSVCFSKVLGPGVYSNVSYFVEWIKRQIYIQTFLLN

[1] = biological target: T2, human corin mutant N1022Q (human) (UniProt Q9Y5Q5); experiment: as above
T2 sequence: T1 sequence with N1022Q

binding (human corin WT (human)): binds
Molecule: BiP (binding immunoglobulin protein) (from UniProt P11021 19-654)

binding (human corin WT (human)): binds
binding [1]: binds
Molecule: calreticulin (from UniProt P27797 18-417)

binding (human corin WT (human)): binds
binding [1]: binds
Molecule: protein disulfide isomerase (from UniProt P07237 18-508)

binding (human corin WT (human)): binds
B1: calnexin (protein, UniProt P27824 21-592)
chain: HDGHDDDVIDIEDDLDDVIEEVEDSKPDTTAPPSSPKVTYKAPVPTGEVYFADSFDRGTLSGWILSKAKKDDTDDEIAKYDGKWEVEEMKESKLPGDKGLVLMSRAKHHAISAKLNKPFLFDTKPLIVQYEVNFQNGIECGGAYVKLLSKTPELNLDQFHDKTPYTIMFGPDKCGEDYKLHFIFRHKNPKTGIYEEKHAKRPDADLKTYFTDKKTHLYTLILNPDNSFEILVDQSVVNSGNLLNDMTPPVNPSREIEDPEDRKPEDWDERPKIPDPEAVKPDDWDEDAPAKIPDEEATKPEGWLDDEPEYVPDPDAEKPEDWDEDMDGEWEAPQIANPRCESAPGCGVWQRPVIDNPNYKGKWKPPMIDNPSYQGIWKPRKIPNPDFFEDLEPFRMTPFSAIGLELWSMTSDIFFDNFIICADRRIVDDWANDGWGLKKAADGAAEPGVVGQMIEAAEERPWLWVVYILTVALPVFLVILFCCSGKKQTSGMEYKKTDAPQPDVKEEEEEKEEEKDKGDEEEEGEEKLEEKQKSDAEEDGGTVSQEEEDRKPKAEEDEILNRSPRNRKPRRE
